Results deposited as PubChem BioAssay AID1224828 (NIAID, 2016).

- Assay: 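Knock-downs that increase or decrease LPS-induced p65 nuclear translocation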 (primary screen)
- Cell system: mouse RAW264.7 G9 macrophage reporter cells (GFP-p65, Tnf promoter-mCherry)
- Reagents: siRNA pool against mouse genes, 100 nM
- Time to read-out: 2 days siRNA transfection, then 40 min LPS before fixation
- Challenge: LPS (Salmonella minnesota R595) at 10 ng/ml
- Measurement: 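Imaged p65 nuclear translocation ratio, normalised to the plate median, converted to robust z-scores and averaged across two replicates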
- Scale: p65 translocation robust z-score: higher = more nuclear NF-kappaB p65 after LPS than the plate median; nuclear/cytoplasmic p65 ratio: higher = more nuclear NF-kappaB p65
- Rule for the call: 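Active if robust z is above 3.3 (negative regulators) or below -1.56, the Tlr4 control median (positive regulators); activity score 50 or more; control wells not called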
- Meaning of the calls: active = hit (p65 shift raised or lowered); inactive = no clear change
In all, the deposit lists about 17,000 reagents; below is a random part of them. 762 of them (4.5%) count as active. 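Active calls include both raised and lowered p65 entry, mostly lowered; wells with fewer than 50 cells lack a z-score.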 The raw values are shown without normalisation. Reagents against one gene are numbered here.

The opening 4 records as a preview:
| gene | reagent no. | p65 translocation robust z-score | nuclear/cytoplasmic p65 ratio, rep 1 | nuclear/cytoplasmic p65 ratio, rep 2 | low cell count flag | outcome |
| --- | --- | --- | --- | --- | --- | --- |
| Mcpt1 | 1 | 1.59 | 1.91 | 1.83 | enough cells to score | inactive |
| Or8d23 | 1 | 0.89 | 1.63 | 1.29 | enough cells to score | inactive |
| Gpc6 | 1 | 0.6 | 1.83 | 1.55 | enough cells to score | inactive |
| Prss34 | 1 | 0.41 | 1.4 | 1.29 | enough cells to score | inactive |

The listing, repeating the preview:
| gene | reagent no. | p65 translocation robust z-score | nuclear/cytoplasmic p65 ratio, rep 1 | nuclear/cytoplasmic p65 ratio, rep 2 | low cell count flag | outcome |
| --- | --- | --- | --- | --- | --- | --- |
| Mcpt1 | 1 | 1.59 | 1.91 | 1.83 | enough cells to score | inactive |
| Or8d23 | 1 | 0.89 | 1.63 | 1.29 | enough cells to score | inactive |
| Gpc6 | 1 | 0.6 | 1.83 | 1.55 | enough cells to score | inactive |
| Prss34 | 1 | 0.41 | 1.4 | 1.29 | enough cells to score | inactive |
| Rhobtb3 | 1 | -0.99 | 1.42 | 1.33 | enough cells to score | inactive |
| Cdpf1 | 1 | -0.05 | 1.3 | 1.35 | enough cells to score | inactive |
| Or5p66 | 1 | – | 1.45 | 2.08 | fewer than 50 cells per well; well left out of scoring | inactive |
| Osbp | 1 | 1.05 | 1.62 | 1.52 | enough cells to score | inactive |
| Fasn | 1 | – | 1.24 | 1.14 | fewer than 50 cells per well; well left out of scoring | inactive |
| Bcl7b | 1 | 1.5 | 1.79 | 1.88 | enough cells to score | inactive |
| Crcp | 1 | 0.11 | 1.63 | 1.76 | enough cells to score | inactive |
| Siva1 | 1 | -0.27 | 1.53 | 1.5 | enough cells to score | inactive |
| Pard6b | 1 | -0.75 | 1.36 | 1.16 | enough cells to score | inactive |
| Nedd1 | 1 | -0.99 | 1.69 | 1.39 | enough cells to score | inactive |
| Pdcd5 | 1 | 0.46 | 1.54 | 1.44 | enough cells to score | inactive |
| Or5b12b | 1 | -0.84 | 1.51 | 1.29 | enough cells to score | inactive |
| Or10j3b | 1 | -1.26 | 1.38 | 1.29 | enough cells to score | inactive |
| Rybp | 1 | -0.63 | 1.45 | 1.41 | enough cells to score | inactive |
| Pten | 1 | -0.26 | 1.39 | 1.44 | enough cells to score | inactive |
| Pten | 2 | -0.19 | 1.47 | 1.9 | enough cells to score | inactive |
| Tcta | 1 | 0.18 | 1.66 | 1.62 | enough cells to score | inactive |
| Med9 | 1 | -0.12 | 1.61 | 1.82 | enough cells to score | inactive |
| Celf6 | 1 | – | 1.13 | 1.16 | fewer than 50 cells per well; well left out of scoring | inactive |
| C630004L07Rik | 1 | 2.22 | 1.73 | 1.83 | enough cells to score | inactive |
| P2ry13 | 1 | -0.04 | 1.5 | 1.49 | enough cells to score | inactive |
| Doc2b | 1 | 1.64 | 1.69 | 1.46 | enough cells to score | inactive |
| Hpse | 1 | -1.5 | 1.41 | 1.33 | enough cells to score | inactive |
| Samd14 | 1 | -1.67 | 1.36 | 1.53 | enough cells to score | active |
| Rasl10a | 1 | -0.23 | 1.57 | 1.59 | enough cells to score | inactive |
| Kcnb1 | 1 | 0.48 | 1.55 | 1.43 | enough cells to score | inactive |
| Ube2a | 1 | – | 1.36 | 0.998 | fewer than 50 cells per well; well left out of scoring | inactive |
| Ccl1 | 1 | -0.55 | 1.48 | 1.73 | enough cells to score | inactive |
| Taf4 | 1 | -0.55 | 1.49 | 1.39 | enough cells to score | inactive |
| Kcnh5 | 1 | -0.6 | 1.56 | 1.48 | enough cells to score | inactive |
| Pcdha7 | 1 | -0.38 | 1.33 | 1.2 | enough cells to score | inactive |
| Pde6c | 1 | -1 | 0.979 | 1.59 | enough cells to score | inactive |
| Or52ab4 | 1 | – | 1.34 | 1.28 | fewer than 50 cells per well; well left out of scoring | inactive |
| Or9g3 | 1 | 0.21 | 1.51 | 1.55 | enough cells to score | inactive |
| Nrip3 | 1 | 0.63 | 1.83 | 1.55 | enough cells to score | inactive |
| Dcaf4 | 1 | 2.98 | 1.72 | 1.66 | enough cells to score | inactive |
| Hrh2 | 1 | -0.8 | 1.43 | 1.43 | enough cells to score | inactive |
| Mier2 | 1 | -0.19 | 1.43 | 1.38 | enough cells to score | inactive |
| Borcs5 | 1 | 1.13 | 1.81 | 1.79 | enough cells to score | inactive |
| Moap1 | 1 | -1.56 | 1.22 | 1.16 | enough cells to score | inactive |
| Or3a1c | 1 | 0.45 | 1.58 | 1.31 | enough cells to score | inactive |
| Fam25a | 1 | – | 1.4 | 1.41 | fewer than 50 cells per well; well left out of scoring | inactive |
| Gmds | 1 | 2.11 | 2.05 | 1.77 | enough cells to score | inactive |
| Wfdc5 | 1 | -0.44 | 1.48 | 1.81 | enough cells to score | inactive |
| Ccdc186 | 1 | 0.96 | 1.24 | 1.66 | enough cells to score | inactive |
| Jam2 | 1 | 0.35 | 1.53 | 1.54 | enough cells to score | inactive |
| Gipc1 | 1 | – | 1.47 | 1.07 | fewer than 50 cells per well; well left out of scoring | inactive |
| Usp46 | 1 | -0.2 | 1.55 | 1.61 | enough cells to score | inactive |
| Sstr5 | 1 | -0.74 | 1.46 | 1.42 | enough cells to score | inactive |
| Zfp617 | 1 | – | 1.45 | 1.29 | fewer than 50 cells per well; well left out of scoring | inactive |
| Naa16 | 1 | 0.46 | 1.55 | 1.55 | enough cells to score | inactive |
| Was | 1 | -1.86 | 1.35 | 1.23 | enough cells to score | active |
| Slc9b1 | 1 | 1.34 | 1.53 | 1.71 | enough cells to score | inactive |
| Gjc1 | 1 | 0.26 | 1.44 | 1.43 | enough cells to score | inactive |
| Bmp6 | 1 | 0.07 | 1.68 | 1.57 | enough cells to score | inactive |
| Chrnd | 1 | -1.2 | 1.18 | 1.23 | enough cells to score | inactive |
| Dennd5b | 1 | 0.7 | 1.62 | 1.96 | enough cells to score | inactive |
| Krt4 | 1 | -0.89 | 1.35 | 1.27 | enough cells to score | inactive |
| Tlx3 | 1 | – | 1.31 | 0 | fewer than 50 cells per well; well left out of scoring | inactive |
| Tssk3 | 1 | -0.25 | 1.13 | 1.2 | enough cells to score | inactive |
| Tssk3 | 2 | -0.36 | 1.63 | 1.28 | enough cells to score | inactive |
| Hsh2d | 1 | – | 1.58 | 1.46 | fewer than 50 cells per well; well left out of scoring | inactive |
| Kat5 | 1 | -0.21 | 1.33 | 1.43 | enough cells to score | inactive |
| Pcgf5 | 1 | – | 1.43 | 1.63 | fewer than 50 cells per well; well left out of scoring | inactive |
| 9930014A18Rik | 1 | 0.14 | 1.39 | 1.63 | enough cells to score | inactive |
| Spatc1l | 1 | 0.16 | 1.45 | 1.4 | enough cells to score | inactive |
| Lasp1 | 1 | -1.18 | 1.39 | 1.27 | enough cells to score | inactive |
| Zfp120 | 1 | 1.46 | 1.67 | 1.36 | enough cells to score | inactive |
| Or8k53 | 1 | -0.23 | 1.69 | 1.35 | enough cells to score | inactive |
| Dixdc1 | 1 | 2.44 | 1.9 | 1.58 | enough cells to score | inactive |
| Ca5a | 1 | -1.95 | 1.33 | 1.43 | enough cells to score | active |
